Reference: PubChem BioAssay AID1259424 (University of Nebraska Medical Center, 2018)
Here is a random part of about 14,000 deposited reagents. 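Higher correlation or smaller distance means closer resemblance to KSR1 loss; control wells, including KSR1 knockdowns, recur on many plates.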 Further read-outs or replicates are left out here. Reagent sequences are not shown. Not stated in the record: the time to read-out.

Test: 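Seek colon cancer survival genes behaving like KSR1, using a six-gene signature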 (primary screen)
Cells: human HCT116 colon cancer cells
Reagents: siRNA pool against human genes, 50 nM
Measured: 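Log2 levels of six mRNAs (branched-DNA multiplex), adjusted by two reference genes and the non-targeting median, then scored against the average KSR1 knockdown pattern as Pearson r and euclidean distance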
Direction: mean correlation with KSR1 profile and KSR1 correlation: higher = expression change more like KSR1 knockdown; mean distance from KSR1 profile: higher = expression change less like KSR1 knockdown

| Target gene | PubChem SID | mean correlation with KSR1 profile | mean distance from KSR1 profile | KSR1 correlation, replicate 1 | KSR1 correlation, replicate 2 |
| --- | --- | --- | --- | --- | --- |
| LPIN1 | SID364004667 | 0.61 | 1.03 | 0.244 | 0.404 |
| SIGLEC12 | SID364004359 | 0.123 | 2.09 | -0.144 | 0.168 |
| COPG1 | SID363999896 | 0.253 | 2.57 | 0.647 | 0.0296 |
| GLRA1 | SID363991507 | -0.395 | 1.89 | -0.273 | -0.605 |
| CLIP2 | SID363994500 | -0.299 | 1.4 | -0.0505 | -0.457 |
| OR51E2 | SID364003427 | 0.885 | 1.6 | 0.883 | 0.887 |
| GPCPD1 | SID364001425 | -0.402 | 3.5 | -0.176 | -0.439 |
| THG1L | SID364000602 | 0.287 | 2.01 | 0.0789 | 0.454 |
| LAMA2 | SID363991757 | 0.171 | 2.56 | 0.186 | -0.12 |
| TMEM128 | SID364004273 | 0.503 | 1.37 | 0.347 | 0.0484 |
| GLI2 | SID363996190 | 0.0428 | 3.06 | 0.105 | -0.175 |
| APOM | SID364001401 | 0.391 | 1.08 | 0.225 | 0.308 |
| PRICKLE3 | SID363996980 | 0.734 | 3.43 | 0.8 | 0.644 |
| PEX11B | SID363994907 | -0.575 | 1.64 | -0.824 | -0.486 |
| TREH | SID363997880 | -0.321 | 1.11 | -0.357 | -0.0919 |
| DLX1 | SID364004904 | 0.758 | 0.835 | 0.764 | 0.674 |
| PCDHB14 | SID364001261 | 0.575 | 1.25 | 0.368 | 0.238 |
| TMC6 | SID363997956 | 0.415 | 1.84 | 0.477 | 0.159 |
| PPT1 | SID363991642 | 0.984 | 1.02 | 0.987 | 0.927 |
| COQ7 | SID363999903 | -0.415 | 1.89 | -0.2 | -0.564 |
